Test results as given in paper PMC9533486.
Results are given in words; binding and its absence hold for the method and conditions named. Binding seen in cells or lysates may run through a third protein. Here binding means that the protein was enriched with, or labelled near, the bait; the list need not be complete.

By UniProt entry, the sequences of proteins in these tests, tags left out.
UniProt Q9Y297: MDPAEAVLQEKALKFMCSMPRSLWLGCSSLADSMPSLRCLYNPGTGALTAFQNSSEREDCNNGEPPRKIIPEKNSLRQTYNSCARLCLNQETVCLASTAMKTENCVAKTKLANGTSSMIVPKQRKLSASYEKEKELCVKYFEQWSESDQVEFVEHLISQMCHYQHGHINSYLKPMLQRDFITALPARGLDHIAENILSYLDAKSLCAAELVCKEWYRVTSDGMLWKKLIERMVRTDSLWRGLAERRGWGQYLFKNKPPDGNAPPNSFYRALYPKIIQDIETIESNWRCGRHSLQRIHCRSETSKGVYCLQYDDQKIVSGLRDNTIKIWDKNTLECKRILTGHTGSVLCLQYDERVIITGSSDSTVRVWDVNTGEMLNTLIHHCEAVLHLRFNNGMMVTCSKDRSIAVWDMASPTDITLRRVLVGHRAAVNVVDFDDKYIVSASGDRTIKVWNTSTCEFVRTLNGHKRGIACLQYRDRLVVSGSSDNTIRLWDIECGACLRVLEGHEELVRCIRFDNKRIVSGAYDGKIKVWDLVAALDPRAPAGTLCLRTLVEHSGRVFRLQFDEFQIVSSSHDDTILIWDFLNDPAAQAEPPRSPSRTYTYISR
UniProt P01106: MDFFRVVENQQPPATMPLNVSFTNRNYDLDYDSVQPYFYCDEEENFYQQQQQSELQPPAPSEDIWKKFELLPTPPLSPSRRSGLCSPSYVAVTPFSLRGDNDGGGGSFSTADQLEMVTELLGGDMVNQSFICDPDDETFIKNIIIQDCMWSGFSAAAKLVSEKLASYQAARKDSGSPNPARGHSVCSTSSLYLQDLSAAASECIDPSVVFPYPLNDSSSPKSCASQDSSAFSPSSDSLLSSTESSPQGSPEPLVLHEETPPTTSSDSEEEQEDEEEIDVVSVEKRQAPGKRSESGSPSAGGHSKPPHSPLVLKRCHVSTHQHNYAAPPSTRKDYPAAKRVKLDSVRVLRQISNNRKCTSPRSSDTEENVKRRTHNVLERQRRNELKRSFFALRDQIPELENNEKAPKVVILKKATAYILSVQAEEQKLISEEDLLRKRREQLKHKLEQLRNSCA

Target: β-TrCP (Beta-transducin repeat containing E3 ubiquitin protein ligase) (human (endogenous in CNE2 and 5-8F)) (UniProt Q9Y297)
Test: affinity purification with mass spectrometry; immunoprecipitation with β-TrCP antibody from CNE2 cells, followed by LC-MS/MS

binding: binds
Substance: c-Myc (from UniProt P01106 1-454)
